Some of the results follow.

The nature of the assay: GCN4-lacZ reporter reduction in eIF2B-epsilon mutant yeast, primary screen, S. cerevisiae, eIF2B-epsilon R284H, Beta-Glo luminescence (AID 688). As to conditions: measured here: mutant yeast growth, toxicity, concentration not given here.
Regarding `N#CC1(Nc2ccccc2)CCN(CCc2ccccc2)CC1`, the growth inhibition is -14.8%.

Turning to `N/C(=N\O)c1c(N)no[n+]1[O-]`, the growth inhibition is -7.41%.

With `c1ccc(CN2CCC(Nc3ccccc3)CC2)cc1`, the growth inhibition was determined as 6.06%.

In the case of `CCC(CO)(C(=O)OC1CN2CCC1CC2)c1ccccc1` (centres undefined), the growth inhibition amounted to 15.2%.

The values above are taken from PubChem BioAssay AID688 (PCMD, 2007).
